We go through four molecules from paper doi:10.1101/2021.08.24.457482 (bioRxiv, 2021).

Chains of the proteins cited; added tags and fusions are not shown. Lines headed by an entry give the natural chain unless they say otherwise; changes in a name come on top. Residues count along the entry.
UniProt O14786, 22-923: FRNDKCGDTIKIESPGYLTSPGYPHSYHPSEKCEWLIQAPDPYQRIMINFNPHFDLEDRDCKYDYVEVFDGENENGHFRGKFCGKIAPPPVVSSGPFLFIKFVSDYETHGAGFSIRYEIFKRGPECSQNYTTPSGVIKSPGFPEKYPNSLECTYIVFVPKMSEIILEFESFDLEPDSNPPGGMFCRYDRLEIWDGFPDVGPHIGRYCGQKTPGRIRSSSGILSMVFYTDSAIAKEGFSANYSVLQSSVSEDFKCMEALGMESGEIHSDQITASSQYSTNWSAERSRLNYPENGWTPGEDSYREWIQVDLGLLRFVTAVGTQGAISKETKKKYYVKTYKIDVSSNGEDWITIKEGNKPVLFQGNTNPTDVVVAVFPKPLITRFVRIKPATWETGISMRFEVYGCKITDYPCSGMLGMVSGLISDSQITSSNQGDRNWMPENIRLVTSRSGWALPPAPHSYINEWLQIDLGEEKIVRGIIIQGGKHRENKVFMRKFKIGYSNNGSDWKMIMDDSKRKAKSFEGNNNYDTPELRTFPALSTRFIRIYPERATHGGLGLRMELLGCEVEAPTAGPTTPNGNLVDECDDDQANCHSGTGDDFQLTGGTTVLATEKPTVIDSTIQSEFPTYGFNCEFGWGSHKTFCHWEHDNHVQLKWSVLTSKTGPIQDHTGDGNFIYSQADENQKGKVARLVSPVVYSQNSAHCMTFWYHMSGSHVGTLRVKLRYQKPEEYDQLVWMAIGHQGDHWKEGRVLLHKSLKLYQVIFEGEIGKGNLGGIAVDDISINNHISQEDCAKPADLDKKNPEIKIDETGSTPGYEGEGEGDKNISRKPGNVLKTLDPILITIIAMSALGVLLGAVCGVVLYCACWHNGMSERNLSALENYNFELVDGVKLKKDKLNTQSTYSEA
UniProt P29350, whole entry: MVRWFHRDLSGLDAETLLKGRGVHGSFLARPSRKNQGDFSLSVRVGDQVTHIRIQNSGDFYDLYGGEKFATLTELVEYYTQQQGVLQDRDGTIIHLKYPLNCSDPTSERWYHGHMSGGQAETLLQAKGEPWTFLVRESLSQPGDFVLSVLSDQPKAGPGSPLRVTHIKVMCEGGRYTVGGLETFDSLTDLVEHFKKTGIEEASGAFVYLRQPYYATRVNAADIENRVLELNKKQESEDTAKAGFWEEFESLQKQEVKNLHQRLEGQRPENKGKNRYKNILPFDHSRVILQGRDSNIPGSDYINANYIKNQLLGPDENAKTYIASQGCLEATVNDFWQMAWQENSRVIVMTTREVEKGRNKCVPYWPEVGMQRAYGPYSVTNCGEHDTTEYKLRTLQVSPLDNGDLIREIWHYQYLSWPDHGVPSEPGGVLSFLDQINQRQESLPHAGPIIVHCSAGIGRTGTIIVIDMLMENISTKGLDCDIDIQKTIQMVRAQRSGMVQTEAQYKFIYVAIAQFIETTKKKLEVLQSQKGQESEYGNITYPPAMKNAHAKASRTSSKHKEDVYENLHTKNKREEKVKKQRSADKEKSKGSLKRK
UniProt Q92854, 22-734: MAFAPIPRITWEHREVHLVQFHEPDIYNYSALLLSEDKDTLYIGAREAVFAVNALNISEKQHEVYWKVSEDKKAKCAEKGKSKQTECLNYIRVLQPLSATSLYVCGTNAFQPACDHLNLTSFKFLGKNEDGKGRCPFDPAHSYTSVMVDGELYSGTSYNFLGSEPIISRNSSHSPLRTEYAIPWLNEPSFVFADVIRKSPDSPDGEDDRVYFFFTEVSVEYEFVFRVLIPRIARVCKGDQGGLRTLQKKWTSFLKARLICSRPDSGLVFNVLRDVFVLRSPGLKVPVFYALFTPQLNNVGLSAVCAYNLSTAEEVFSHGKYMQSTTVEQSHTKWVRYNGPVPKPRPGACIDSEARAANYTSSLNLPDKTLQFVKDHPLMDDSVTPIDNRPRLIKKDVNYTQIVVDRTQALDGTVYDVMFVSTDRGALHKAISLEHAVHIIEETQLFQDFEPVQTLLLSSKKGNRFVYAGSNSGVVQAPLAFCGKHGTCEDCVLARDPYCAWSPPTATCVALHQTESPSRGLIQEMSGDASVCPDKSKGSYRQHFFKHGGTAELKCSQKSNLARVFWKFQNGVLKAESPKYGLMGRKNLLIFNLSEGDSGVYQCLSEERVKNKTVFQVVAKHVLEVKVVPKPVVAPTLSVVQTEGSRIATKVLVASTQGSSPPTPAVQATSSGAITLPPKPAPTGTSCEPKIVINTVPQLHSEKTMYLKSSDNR

Like-named read-outs stand apart in the source and are kept apart here. Results are given in words; binding and its absence hold for the method and conditions named. For part of these data: In cells and extracts the contact can be indirect. Some binding calls cover weakened binding; strength is not graded here. For part of these data: Where a sequence is shown, tags or fusion partners need not be part of it.

In assay [1] the target is T1, CD72 expressed in BLCL-CD72+ cells (human) (UniProt P21854).
T1 sequence: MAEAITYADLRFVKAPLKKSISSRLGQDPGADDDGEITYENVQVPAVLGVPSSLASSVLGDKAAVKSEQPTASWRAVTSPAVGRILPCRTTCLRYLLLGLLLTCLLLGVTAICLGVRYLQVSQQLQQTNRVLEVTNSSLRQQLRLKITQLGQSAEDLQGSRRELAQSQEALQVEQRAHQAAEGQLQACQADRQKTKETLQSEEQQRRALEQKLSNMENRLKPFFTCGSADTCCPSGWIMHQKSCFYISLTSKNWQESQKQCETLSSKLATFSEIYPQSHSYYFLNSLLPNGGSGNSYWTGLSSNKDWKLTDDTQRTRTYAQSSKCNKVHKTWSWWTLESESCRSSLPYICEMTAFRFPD
Nature of the assay: co-IP.

Assay [2] addresses T2, CD72 fused with a V5 epitope tag, expressed in U87MG-ΔNRP-1-CD72+ cells (human) (UniProt P21854).
T2 sequence: T1 sequence
Nature of the assay: alkaline phosphatase fusion binding to cells.

Assay [3] concerns the target T2, CD72 fused with a V5 epitope tag, expressed in U87MG-ΔNRP-1-CD72+ cells (human). The assay is described as follows: co-IP.
The target is the same in assay [4]. Nature of the assay: alkaline phosphatase fusion binding to cells. This is another data set of the same source.
For assay [5], the target named is neuropilin-1 (NRP-1) on parental U87MG cells (human (endogenous in U87MG)) (UniProt O14786). Nature of the assay: alkaline phosphatase fusion binding to cells.
Assay [6] has the same target. The assay is described as follows: alkaline phosphatase fusion binding to cells. The source holds these as a separate data set.
The target in assay [7] is T2, CD72 fused with a V5 epitope tag, expressed in U87MG-ΔNRP-1-CD72+ cells (human). The assay is described as follows: alkaline phosphatase fusion binding to cells. This is another data set of the same source.
In assay [8] the target is neuropilin-1 (NRP-1) on parental U87MG cells (human (endogenous in U87MG)) (UniProt O14786). Nature of the assay: alkaline phosphatase fusion binding to cells. This is another data set of the same source.

On to “SHP-1 (from UniProt P29350 1-595) (enzyme)”, for which, in assay [1], the binding result is “binds”.

As to “recombinant human sema4D protein (from UniProt Q92854) (ligand)”, the binding result in assay [2] is “binds”.

B1: recombinant sema3A fused with 6xHistidine tag (Semaphorin3A) (ligand, UniProt Q14563 21-771)
chain: NYQNGKNNVPRLKLSYKEMLESNNVITFNGLANSSSYHTFLLDEERSRLYVGAKDHIFSFDLVNIKDFQKIVWPVSYTRRDECKWAGKDILKECANFIKVLKAYNQTHLYACGTGAFHPICTYIEIGHHPEDNIFKLENSHFENGRGKSPYDPKLLTASLLIDGELYSGTAADFMGRDFAIFRTLGHHHPIRTEQHDSRWLNDPKFISAHLISESDNPEDDKVYFFFRENAIDGEHSGKATHARIGQICKNDFGGHRSLVNKWTTFLKARLICSVPGPNGIDTHFDELQDVFLMNFKDPKNPVVYGVFTTSSNIFKGSAVCMYSMSDVRRVFLGPYAHRDGPNYQWVPYQGRVPYPRPGTCPSKTFGGFDSTKDLPDDVITFARSHPAMYNPVFPMNNRPIVIKTDVNYQFTQIVVDRVDAEDGQYDVMFIGTDVGTVLKVVSIPKETWYDLEEVLLEEMTVFREPTAISAMELSTKQQQLYIGSTAGVAQLPLHRCDIYGKACAECCLARDPYCAWDGSACSRYFPTAKRRTRRQDIRNGDPLTHCSDLHHDNHHGHSPEERIIYGVENSSTFLECSPKSQRALVYWQFQRRNEERKEEIRVDDHIIRTDQGLLLRSLQQKDSGNYLCHAVEHGFIQTLLKVTLEVIDTEHLEELLHKDDDGDGSKTKEMSNSMTPSQKVWYRDFMQLINHPNLNTMDEFCEQVWKRDRKQRRQRPGHTPGNSNKWKHLQENKKGRNRRTHEFERAPRSV
Regarding B1, the binding result in assay [3] is “binds”.

B2: Sema3A fused in frame with alkaline phosphatase (sema3A-AP) (ligand)
chain: B1 chain
Regarding B2, the binding entry in assay [4], in assay [5], in assay [2], in assay [6], in assay [7] and in assay [8] was “binds” each time.
